Results are given in words; binding and its absence hold for the method and conditions named. Binding seen in cells or lysates may run through a third protein. Some results given as binding are weak or reduced against the parent protein; the word gives no strength.
Experiments:
[1] = target: Tripeptidyl peptidase II (TPP2) (human (endogenous in 293T)) (UniProt P29144); assay: proximity ligation; Duolink in situ PLA on fixed, permeabilised 293T cells, endogenous proteins; wild-type cells, with TPP2-, ATF6-, IRE1-, PERK- or CEPT1-knockout cells and TG, XeC, PC or CCTα-KDEL treatments as comparisons
[2] = target: sarcoendoplasmic reticulum Ca^2+ ATPase (SERCA1) (human (endogenous in 293T)) (UniProt O14983); assay: as above
[3] = target: sarcoendoplasmic reticulum Ca^2+ ATPase (SERCA1) (human (endogenous in 293T)) (UniProt O14983); assay: proximity ligation; Duolink in situ PLA on TPP2 knockout 293T cells (binding lost or barely left; restored by ectopic TPP2, TPP2 S449A/T, or by TG, PC or CCTα-KDEL as named)
[4] = target: sarcoendoplasmic reticulum Ca^2+ ATPase (SERCA1) (human (endogenous in 293T)) (UniProt O14983); assay: as above; remark: listed apart in the source
[5] = target: sarcoendoplasmic reticulum Ca^2+ ATPase (SERCA1), mouse (mouse (endogenous in hippocampal neurons and hippocampus)) (UniProt Q8R429); assay: proximity ligation; Duolink in situ PLA on DIV10 TPP2 knockout hippocampal neurons of female mice (binding lost or barely left; reversed by TG 5 μM 5 h or PC)
[6] = target: sarcoendoplasmic reticulum Ca^2+ ATPase (SERCA1), mouse (mouse (endogenous in hippocampal neurons and hippocampus)) (UniProt Q8R429); assay: condition: only in TPP2 knockout neurons of female mice; proximity ligation; Duolink in situ PLA on DIV10 TPP2 knockout hippocampal neurons of female mice (binding lost or barely left; reversed by TG 5 μM 5 h or PC)
[7] = target: sarcoendoplasmic reticulum Ca^2+ ATPase (SERCA1), mouse (mouse (endogenous in hippocampal neurons and hippocampus)) (UniProt Q8R429); assay: proximity ligation; Duolink in situ PLA on DIV10 mouse primary hippocampal neurons, endogenous proteins; wild-type neurons, female shown, with TPP2 knockout and male neurons as comparisons

Protein sequences, listed by entry. Tags and fused reporters are not part of them.
UniProt P29144: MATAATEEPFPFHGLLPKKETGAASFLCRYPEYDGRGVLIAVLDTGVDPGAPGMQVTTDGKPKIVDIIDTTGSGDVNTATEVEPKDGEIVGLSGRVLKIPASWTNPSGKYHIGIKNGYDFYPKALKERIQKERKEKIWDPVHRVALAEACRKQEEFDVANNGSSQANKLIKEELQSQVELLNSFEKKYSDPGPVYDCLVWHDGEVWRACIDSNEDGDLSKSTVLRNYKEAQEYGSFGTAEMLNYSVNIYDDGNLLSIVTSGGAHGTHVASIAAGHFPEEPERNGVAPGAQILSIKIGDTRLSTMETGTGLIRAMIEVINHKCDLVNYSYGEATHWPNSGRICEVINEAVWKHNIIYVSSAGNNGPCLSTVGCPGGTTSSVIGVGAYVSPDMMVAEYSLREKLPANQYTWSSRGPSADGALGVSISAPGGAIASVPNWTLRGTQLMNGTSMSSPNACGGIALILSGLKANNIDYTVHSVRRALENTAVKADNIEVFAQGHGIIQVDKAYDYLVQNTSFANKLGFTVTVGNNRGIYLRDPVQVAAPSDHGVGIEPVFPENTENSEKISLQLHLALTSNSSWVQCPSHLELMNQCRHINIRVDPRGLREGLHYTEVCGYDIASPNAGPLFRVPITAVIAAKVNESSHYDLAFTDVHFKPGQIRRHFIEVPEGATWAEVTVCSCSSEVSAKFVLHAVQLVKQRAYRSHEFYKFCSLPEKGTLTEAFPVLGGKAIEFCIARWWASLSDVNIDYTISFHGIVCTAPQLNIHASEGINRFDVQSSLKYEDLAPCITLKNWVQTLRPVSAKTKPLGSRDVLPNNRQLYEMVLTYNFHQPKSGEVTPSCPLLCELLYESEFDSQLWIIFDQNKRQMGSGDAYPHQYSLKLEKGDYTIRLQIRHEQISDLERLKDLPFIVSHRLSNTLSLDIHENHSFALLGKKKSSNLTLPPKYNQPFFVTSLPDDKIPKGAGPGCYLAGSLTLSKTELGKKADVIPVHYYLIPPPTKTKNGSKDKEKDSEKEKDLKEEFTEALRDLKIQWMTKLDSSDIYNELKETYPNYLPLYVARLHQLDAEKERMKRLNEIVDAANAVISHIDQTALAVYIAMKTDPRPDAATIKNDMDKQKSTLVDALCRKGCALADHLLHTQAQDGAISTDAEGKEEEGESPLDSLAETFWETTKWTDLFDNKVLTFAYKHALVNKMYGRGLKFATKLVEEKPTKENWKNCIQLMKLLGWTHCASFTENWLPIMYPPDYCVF
UniProt O14983: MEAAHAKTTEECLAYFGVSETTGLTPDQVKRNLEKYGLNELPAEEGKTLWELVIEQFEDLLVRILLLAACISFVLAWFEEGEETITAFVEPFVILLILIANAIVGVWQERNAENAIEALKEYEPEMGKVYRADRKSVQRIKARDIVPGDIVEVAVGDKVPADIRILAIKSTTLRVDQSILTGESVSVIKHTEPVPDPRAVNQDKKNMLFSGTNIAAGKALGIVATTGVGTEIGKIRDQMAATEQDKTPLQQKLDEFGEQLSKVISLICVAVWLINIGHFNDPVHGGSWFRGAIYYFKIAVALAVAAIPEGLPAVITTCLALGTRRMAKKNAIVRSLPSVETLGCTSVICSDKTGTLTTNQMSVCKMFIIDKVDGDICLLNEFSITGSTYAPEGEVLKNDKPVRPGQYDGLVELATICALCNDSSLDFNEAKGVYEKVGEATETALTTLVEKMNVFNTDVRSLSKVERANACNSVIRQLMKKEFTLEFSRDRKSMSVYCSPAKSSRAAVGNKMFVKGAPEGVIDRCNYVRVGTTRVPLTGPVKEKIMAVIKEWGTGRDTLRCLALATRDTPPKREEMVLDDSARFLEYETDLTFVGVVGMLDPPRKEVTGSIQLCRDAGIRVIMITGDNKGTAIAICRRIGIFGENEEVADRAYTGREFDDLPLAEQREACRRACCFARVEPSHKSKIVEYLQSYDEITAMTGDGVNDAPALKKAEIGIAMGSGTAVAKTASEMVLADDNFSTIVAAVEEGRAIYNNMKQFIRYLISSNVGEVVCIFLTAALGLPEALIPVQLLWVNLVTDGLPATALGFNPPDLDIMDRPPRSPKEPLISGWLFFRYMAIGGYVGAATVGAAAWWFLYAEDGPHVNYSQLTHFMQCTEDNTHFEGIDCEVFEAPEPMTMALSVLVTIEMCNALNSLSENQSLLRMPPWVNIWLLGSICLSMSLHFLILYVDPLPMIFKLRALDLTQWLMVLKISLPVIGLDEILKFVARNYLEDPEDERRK
UniProt Q8R429: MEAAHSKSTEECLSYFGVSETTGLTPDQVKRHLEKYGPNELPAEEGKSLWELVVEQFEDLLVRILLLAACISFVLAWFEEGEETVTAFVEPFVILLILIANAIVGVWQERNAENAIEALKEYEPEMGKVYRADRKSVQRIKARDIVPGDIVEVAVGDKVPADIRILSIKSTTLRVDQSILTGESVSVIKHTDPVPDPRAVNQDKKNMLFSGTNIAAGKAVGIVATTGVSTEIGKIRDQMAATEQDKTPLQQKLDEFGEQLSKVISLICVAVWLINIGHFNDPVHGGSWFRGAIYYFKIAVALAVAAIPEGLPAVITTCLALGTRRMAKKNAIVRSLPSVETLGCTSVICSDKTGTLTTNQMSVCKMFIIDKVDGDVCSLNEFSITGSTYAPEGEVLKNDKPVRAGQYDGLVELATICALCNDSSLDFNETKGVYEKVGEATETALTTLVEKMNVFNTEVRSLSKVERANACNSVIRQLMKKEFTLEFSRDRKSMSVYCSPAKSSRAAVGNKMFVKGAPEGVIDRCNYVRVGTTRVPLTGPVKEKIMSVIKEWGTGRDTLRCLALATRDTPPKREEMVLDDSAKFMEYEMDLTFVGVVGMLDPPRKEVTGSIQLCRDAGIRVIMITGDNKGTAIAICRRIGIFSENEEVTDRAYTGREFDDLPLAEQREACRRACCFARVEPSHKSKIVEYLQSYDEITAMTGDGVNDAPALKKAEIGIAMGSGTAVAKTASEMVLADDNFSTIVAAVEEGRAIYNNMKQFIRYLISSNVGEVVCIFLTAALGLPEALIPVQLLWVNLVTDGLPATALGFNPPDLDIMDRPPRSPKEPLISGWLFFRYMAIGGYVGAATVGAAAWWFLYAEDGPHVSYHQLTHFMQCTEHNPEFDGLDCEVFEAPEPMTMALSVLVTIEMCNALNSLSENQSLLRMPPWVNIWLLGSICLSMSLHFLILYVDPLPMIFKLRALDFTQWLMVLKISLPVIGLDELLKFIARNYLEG

binding [1] | binding [2] | binding [3] | binding [5] | binding [6] | binding [7] | Molecule | binding [4]
binds | binds | binds weakly | – | – | – | phospholamban (PLN) (from UniProt P26678 1-52) | no binding (condition: in TPP2 knockout 293T cells)
– | – | – | binds weakly | no binding | binds | phospholamban (PLN), mouse (protein, UniProt P61014 1-52) MEKVQYLTRSAIRRASTIEMPQQARQNLQNLFINFCLILICLLLICIIVMLL | –
